We go through two molecules from patent US20240352088A1 (AICHI PREFECTURE, published 2024).

Chains of the proteins cited; added tags and fusions are not shown. Residues count along the entry.
UniProt P04141, residues 18-144: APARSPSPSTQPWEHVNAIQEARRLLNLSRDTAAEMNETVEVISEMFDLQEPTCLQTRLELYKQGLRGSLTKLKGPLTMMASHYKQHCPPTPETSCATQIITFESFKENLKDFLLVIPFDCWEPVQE
UniProt P05231, residues 30-212: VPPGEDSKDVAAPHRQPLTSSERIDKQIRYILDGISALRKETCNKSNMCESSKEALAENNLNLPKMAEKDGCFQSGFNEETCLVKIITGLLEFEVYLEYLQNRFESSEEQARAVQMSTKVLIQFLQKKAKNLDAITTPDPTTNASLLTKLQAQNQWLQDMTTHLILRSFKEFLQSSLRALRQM

These are yes or no findings as the source states them, for the method shown. Some entries that bind do so weakly or less than the wild type.

For test [1], the target named is GM-CSF (Granulocyte macrophage colony-stimulating factor) (UniProt P04141). Kind of test: depletion of added recombinant GM-CSF from the culture supernatant after 48 h, ELISA. In general terms: An ELISA detects its analyte on a solid surface through an enzyme-linked reagent.
Test [2] has the same target. Kind of test: co-culture with NALM6 and THP1 cells, ELISA of GM-CSF in the supernatant.
The target in test [3] is T1, IL-6 (interleukin-6) (human, UniProt P05231 30-212).
T1 construct: also called recombinant IL-6; human IL-6
Kind of test: IL-6 added to cells or to cell-free culture supernatant, ELISA of remaining IL-6.

Test [4] deals with T1, IL-6 (interleukin-6). The test can be described thus: depletion of added IL-6 (3,000 pg/mL) from the culture supernatant after 48 h, ELISA.

B1: chimeric cytokine receptors CSF2RA-ca7R and CSF2RB-ca7R, co-introduced (receptor)
chain 1: EKSDLRTVAPASSLNVRFDSRTMNLSWDCQENTTFSKCFLTDKKNRVVEPRLSNNECSCTFREICLHEGVTFEVHVNTSQRGFQQKLLYPNSGREGTAAQNFSCFIYNADLMNCTWARGPTAPRDVQYFLYIRNSKRRREIRCPYYIQDSGTHVGCHLDNLSGLTSRNYFLVNGTSREIGIQFFDSLLDTKKIERFNPPSNVTVRCNTTHCLVRWKQPRTYQKLSYLDFQYQLDVHRKNTQPGTENLLINVSGDLENRYNFPSSEPRAKHSVKIRAADVRILNWSSWSEAIEFGSDDGNNSSGEMDPILLPPCLTISILSFFSVALLVILACVLWKKRIKPIVWPSLPDHKKTLEHLCKKPRKNLNVSFNPESFLDCQIHRVDDIQARDEVEGFLQDTFPQQLEESEKQRLGGDVQSPNCPSEDVVITPESFGRDSSLTCLAGNVSACDAPILSSSRSLDCRESGKNGPHVYQDLLLSLGTTNSTLPPPFSLQSGILTLNPVAQGQPILTSLGSNQEEAYVTMSSFYQNQ
chain 2: WERSLAGAEETIPLQTLRCYNDYTSHITCRWADTQDAQRLVNVTLIRRVNEDLLEPVSCDLSDDMPWSACPHPRCVPRRCVIPCQSFVVTDVDYFSFQPDRPLGTRLTVTLTQHVQPPEPRDLQISTDQDHFLLTWSVALGSPQSHWLSPGDLEFEVVYKRLQDSWEDAAILLSNTSQATLGPEHLMPSSTYVARVRTRLAPGSRLSGRPSKWSPEVCWDSQPGDEAQPQNLECFFDGAAVLSCSWEVRKEVASSVSFGLFYKPSPDAGEEECSPVLREGLGSLHTRHHCQIPVPDPATHGQYIVSVQPRRAEKHIKSSVNIQMAPPSLNVTKDGDSYSLRWETMKMRYEHIDHTFEIQYRKDTATWKDSKTETLQNAHSMALPALEPSTRYWARVRVRTSRTGYNGIWSEWSEARSWDTESVLPMWNNSSGEMDPILLPPCLTISILSFFSVALLVILACVLWKKRIKPIVWPSLPDHKKTLEHLCKKPRKNLNVSFNPESFLDCQIHRVDDIQARDEVEGFLQDTFPQQLEESEKQRLGGDVQSPNCPSEDVVITPESFGRDSSLTCLAGNVSACDAPILSSSRSLDCRESGKNGPHVYQDLLLSLGTTNSTLPPPFSLQSGILTLNPVAQGQPILTSLGSNQEEAYVTMSSFYQNQ
Regarding B1, the binding result in test [1] and in test [2] was “binds” each time.

B2: chimeric cytokine receptor IL6R-ca7R (receptor)
chain: LAPRRCPAQEVARGVLTSLPGDSVTLTCPGVEPEDNATVHWVLRKPAAGSHPSRWAGMGRRLLLRSVQLHDSGNYSCYRAGRPAGTVHLLVDVPPEEPQLSCFRKSPLSNVVCEWGPRSTPSLTTKAVLLVRKFQNSPAEDFQEPCQYSQESQKFSCQLAVPEGDSSFYIVSMCVASSVGSKFSKTQTFQGCGILQPDPPANITVTAVARNPRWLSVTWQDPHSWNSSFYRLRFELRYRAERSKTFTTWMVKDLQHHCVIHDAWSGLRHVVQLRAQEEFGQGEWSEWSPEAMGTPWTESRSPPAENEVSTPMQALTTNKDDDNILFRDSANATSLPVQDSSSVPLPNNSSGEMDPILLPPCLTISILSFFSVALLVILACVLWKKRIKPIVWPSLPDHKKTLEHLCKKPRKNLNVSFNPESFLDCQIHRVDDIQARDEVEGFLQDTFPQQLEESEKQRLGGDVQSPNCPSEDVVITPESFGRDSSLTCLAGNVSACDAPILSSSRSLDCRESGKNGPHVYQDLLLSLGTTNSTLPPPFSLQSGILTLNPVAQGQPILTSLGSNQEEAYVTMSSFYQNQ
As for B2, the binding result in the test with IL-6 (interleukin-6) [3] and with IL-6 (interleukin-6) [4] was “binds” each time.
